Experimental data as given in ChEMBL document CHEMBL2086256, “Synthesis and biological evaluation of selective and potent cyclin-dependent kinase inhibitors” (Eur J Med Chem, 2012).

Test system: SH-SY5Y
Assay: Cytotoxicity against human SH-SY5Y cells assessed as cell viability after 48 hrs by MTS reduction assay
Type: functional, cell-based
Outline: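 SH-SY5Y cells grown in DMEM with 2 mM L-glutamine, antibiotics and 10% FCS; exposed 48 h to a range of compound concentrations; viability by MTS reduction. IC50 is the mean of three experiments.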

Compound CC[C@H](CO)Nc1nc(NCc2ccccc2)c2ncn(C(C)C)c2n1 [SELICICLIB] has an IC50 of 17 µM.
